The source of these data is paper PMC4109312.

Sequences of proteins named here, by UniProt entry; tags and fusion partners are left off. A change or cut given only in a name is not applied to a line headed by its entry. Residues count along the entry.
UniProt P01009: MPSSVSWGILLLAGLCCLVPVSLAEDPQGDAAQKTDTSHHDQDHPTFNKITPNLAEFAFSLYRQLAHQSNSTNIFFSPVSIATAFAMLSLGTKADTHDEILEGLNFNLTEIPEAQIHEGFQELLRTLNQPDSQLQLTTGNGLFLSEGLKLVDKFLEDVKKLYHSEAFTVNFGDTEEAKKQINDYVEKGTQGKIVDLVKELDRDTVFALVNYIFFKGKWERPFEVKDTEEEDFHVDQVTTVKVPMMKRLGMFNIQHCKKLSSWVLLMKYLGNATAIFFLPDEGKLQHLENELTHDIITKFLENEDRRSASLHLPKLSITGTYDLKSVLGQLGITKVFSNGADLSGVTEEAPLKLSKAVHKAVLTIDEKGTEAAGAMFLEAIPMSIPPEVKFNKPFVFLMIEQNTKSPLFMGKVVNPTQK
UniProt P11021, residues 19-654: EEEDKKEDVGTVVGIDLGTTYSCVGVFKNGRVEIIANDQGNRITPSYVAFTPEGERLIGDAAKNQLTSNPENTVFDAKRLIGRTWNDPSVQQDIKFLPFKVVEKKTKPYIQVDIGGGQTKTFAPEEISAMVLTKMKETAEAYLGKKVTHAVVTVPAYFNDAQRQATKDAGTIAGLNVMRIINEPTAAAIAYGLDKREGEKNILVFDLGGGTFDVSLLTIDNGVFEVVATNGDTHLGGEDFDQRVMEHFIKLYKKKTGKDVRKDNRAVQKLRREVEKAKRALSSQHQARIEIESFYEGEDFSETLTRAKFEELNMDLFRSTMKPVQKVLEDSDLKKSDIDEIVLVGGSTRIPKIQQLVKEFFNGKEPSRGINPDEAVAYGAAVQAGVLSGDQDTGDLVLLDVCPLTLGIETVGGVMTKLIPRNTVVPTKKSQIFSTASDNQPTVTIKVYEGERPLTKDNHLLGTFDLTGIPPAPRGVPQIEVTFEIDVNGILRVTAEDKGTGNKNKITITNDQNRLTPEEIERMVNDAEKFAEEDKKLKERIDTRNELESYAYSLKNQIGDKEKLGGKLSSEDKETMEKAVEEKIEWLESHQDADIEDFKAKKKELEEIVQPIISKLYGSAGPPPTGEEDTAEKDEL

Results are given in words; binding and its absence hold for the method and conditions named. In cells and extracts the contact can be indirect. A result given as binding can be weak or reduced; the word gives no strength.

This experiment has as its target null Hong Kong mutant alpha 1 anti-trypsin (NHK-A1AT), C-terminally tagged with 3XFLAG (UniProt P01009). Put plainly: co-IP; anti-FLAG immunoprecipitation (Sigma A2220) of FLAG-tagged NHK-A1AT from pulse-chase metabolically labeled HeLa cells co-expressing ER-ChaC1^CtoS or ER-ChaC1^CtoS;E116Q; SDS-PAGE (reducing or non-reducing) and autoradiography.

Turning to “ER-chaperone BiP (from UniProt P11021 19-654)”, the binding result was “binds”.
